Measurements from PMC6471829.
These are yes or no findings as the source states them, for the method shown. In cells and extracts the contact can be indirect. Some results given as binding are weak or reduced against the parent protein; the word gives no strength.

Protein sequences, listed by entry. Tags and fused reporters are not part of them.
UniProt P48431: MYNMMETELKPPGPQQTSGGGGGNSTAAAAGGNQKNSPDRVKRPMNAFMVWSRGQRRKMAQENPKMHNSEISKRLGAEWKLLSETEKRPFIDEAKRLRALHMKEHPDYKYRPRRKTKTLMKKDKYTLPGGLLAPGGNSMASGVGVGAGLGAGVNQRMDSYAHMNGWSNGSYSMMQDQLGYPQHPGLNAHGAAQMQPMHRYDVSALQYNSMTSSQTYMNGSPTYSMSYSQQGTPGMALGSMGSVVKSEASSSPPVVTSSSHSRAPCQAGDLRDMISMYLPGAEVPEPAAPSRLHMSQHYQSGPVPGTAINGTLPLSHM
UniProt Q01860: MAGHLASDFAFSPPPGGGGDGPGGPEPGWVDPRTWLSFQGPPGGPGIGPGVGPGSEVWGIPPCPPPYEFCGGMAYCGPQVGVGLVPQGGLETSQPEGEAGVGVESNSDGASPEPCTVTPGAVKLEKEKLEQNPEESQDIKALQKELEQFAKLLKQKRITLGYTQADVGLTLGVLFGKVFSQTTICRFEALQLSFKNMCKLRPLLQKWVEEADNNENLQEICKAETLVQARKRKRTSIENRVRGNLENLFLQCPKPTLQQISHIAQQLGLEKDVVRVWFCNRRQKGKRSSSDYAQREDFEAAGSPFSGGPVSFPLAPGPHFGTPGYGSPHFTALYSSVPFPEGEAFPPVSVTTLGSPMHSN

Key:
[1] = molecular target: SOX2 (human (endogenous in hESCs and hESC-derived NECs)) (UniProt P48431); assay: co-IP; SOX2 immunoprecipitated from lysates of undifferentiated hESCs or hESC-derived neural epithelial cells; 1 mg protein, antibody 90 min at 4 °C, Protein-G Dynabeads 1 h; lysis buffer 40 mM HEPES pH 7.4, 5 mM EDTA, 0.05% 2-mercaptoethanol, 10 mM NaCl, 0.5% NP40; immunoblot
HA-SOX2 (human) = HA-SOX2 (human) (UniProt P48431); assay: co-IP; Figure S4B-E: SOX2 (wild type or HMG-domain mutants) with OCT4 and PAX6, also with increasing amounts of expressed PAX6; cells and antibodies not shown; general co-IP protocol of the methods

Row | binding [1] | binding (HA-SOX2 (human)) | Substance
1 | binds |  | OCT4 (from UniProt Q01860 1-360)
2 |  | binds | Flag-OCT4 (from UniProt Q01860 1-360)
